Assay: general procedure: Fmoc solid-phase peptide synthesis; TentaGel resin SPHB-Lys(Boc)-Fmoc (0.22 mmol/g); HOBt/TBTU/NMM
Settings: whole synthesis, scale of the general procedure 1.00 g resin

For “H-Thr-Pro-Arg-Val-Glu-Arg-Asn(Glc)-Gly-His-Ser-Val-Phe-Leu-Ala-Pro-Tyr-Gly-Trp-Met-Val-Lys-OH”, the “final HPLC purity” value was “greater than 97%”.

— patent publication US7037893 (dated 2006)
